Cell number change and AC50 data for 15 compounds are collected here from PubChem BioAssay AID2685 (National Center for Advancing Translational Sciences (NCATS), 2010).

Each structure is given as a SMILES string. Some of the results follow. Further columns of the screen follow, without active or inactive calls. Compounds called inactive in the main read-out are mostly missing here. Potencies come from curve fits of mixed quality, noted in brackets.

A short description of this test: qHTS Assay for Lipid Storage Modulators in Drosophila S3 Cells.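 For Cell number change: cells counted by Cell Tracker Red CMTPX staining in the red channel.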 The note with it: BODIPY lipid droplet fluorescence, 18-24 h; for cell number change: measured here: cell count max response, cells fed with added oleic acid. The method in brief:
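Laser-scanning cytometry quantifies lipid droplet accumulation (500–530 nm total intensity; droplet/cell object ratio) in oleic acid-fed (400 uM added) Drosophila S3 cells treated with a concentration series. 20 uM Triacsin C defined 100% inhibition.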

Setting [1] is: measured here: lipid fluorescence (Fed channel) AC50, cells fed with added oleic acid.
Setting [2] is: measured here: cell number channel AC50, cells fed with added oleic acid.

Consider `Cc1c(NC(=O)c2c(F)c(F)c(F)c(F)c2F)c(=O)n(-c2ccccc2)n1C`, for which the cell number change was -20.8%. Under setting [1], the AC50 was 1.64 µM [falling, full curve, poor fit].

In the case of `Cc1ccc(C(=O)N/N=C2\SCC(=O)N2c2cc(C)ccc2C)cc1`, the cell number change is -64.3%. Further, under setting [2], the AC50 is 11.6 µM [falling, partial curve]. Under setting [1], the AC50 is 13 µM [falling, partial curve].

Consider `Cc1cc(C(=O)CSc2nnc(-c3cccc(F)c3)n2N)c(C)n1Cc1ccc2c(c1)OCO2`, for which the AC50 is, setting by setting: under setting [2], 0.517 µM [rising, full curve]; under setting [1], 0.517 µM [rising, full curve].

Consider `COC(=O)c1cn(CCOc2ccccc2F)c2ccccc12`, for which the half-maximal activity concentration (AC50) under setting [2] is 5.17 µM [rising, single point] and the AC50 under setting [1] is 3.66 µM [rising, full curve].

Turning to `CCOCCCNS(=O)(=O)c1ccccc1`, the cell number change was -39.3%. In addition, the AC50 under setting [2] was 16.4 µM [falling, single point]. In addition, the AC50 under setting [1] was 14.6 µM [falling, partial curve].

Consider `CC(C)NC(=O)COC(=O)/C=C/c1ccc(F)cc1`, for which the cell number change was -10.3%. Further, under setting [1], the AC50 was 0.058 µM [falling, full curve, poor fit].

For `CC(OC(=O)c1cccnc1)C(=O)Nc1ccc2c(c1)OCO2` (configuration not stated), the cell number change is -1.91%. The AC50 under setting [2] is 0.651 µM [falling, single point].

As for `CCc1noc(C)c1C(=O)OC(C)C(=O)NCc1ccc(OC)cc1` (configuration not stated), the cell number change was -15.3%. Also, the AC50 under setting [1] was 29.1 µM [falling, single point].

Regarding `CCc1ccccc1Nc1nc2ccccc2n1C`, the AC50 under setting [1] is 20.6 µM [rising, single point].

`O=C(/C=C/c1ccc(Cl)cc1Cl)N1CCN(c2ccccc2[N+](=O)[O-])CC1`: the AC50 under setting [2] was 2.06 µM [rising, partial curve] and the AC50 under setting [1] is 2.31 µM [rising, full curve].

For the compound `Cc1cc(O)ccc1Nc1nc(-c2cccs2)cs1`, the cell number change is -10.7%. For the same compound, under setting [2], the AC50 was 0.0058 µM [falling, full curve, poor fit].

Take `COc1ccc(C)cc1S(=O)(=O)N1CCN(C)CC1c1ccccc1` (configuration not stated): the cell number change is -37.5%. For the same compound, the AC50 under setting [2] was 18.4 µM [falling, partial curve, poor fit]. For the same compound, the half-maximal activity concentration (AC50) under setting [1] is 23.1 µM [falling, partial curve, poor fit].

Take `Cc1cc(N2CCOCC2)c2c(N)cc(C)c(C)c2n1`: the cell number change is 60.5%. In addition, the AC50 under setting [2] was 2.59 µM [rising, full curve].

As to `CN1C(=O)C(C)(C)c2cc(S(=O)(=O)N3CCN(c4ccccc4)CC3)ccc21`, the cell number change is 21%. Besides, under setting [1], the AC50 is 18.4 µM [falling, single point].

As to `Cc1ccccc1C(=O)Nc1ccc(C(=O)N/N=C/c2ccc(O)c(Br)c2)cc1`, the cell number change was -36.5%. Also, the AC50 under setting [2] is 29.1 µM [falling, single point].

Broadly, the AC50 is the concentration at which the activity in the assay is half-maximal.
